Test results: patent publication US6156724A (priority 1998, dated 2000)

Assay: general procedure: solution-phase peptide synthesis; EDC/HOBT; DCC
Details: coupling step
“Z-D-MeLeu-Thr-{O-[Boc-(3S,4S,5S)Ist-O-Hip-Leu-Pro-Me2 Tyr]}-OTMSe” gave a step yield of 50%.
[Isobutyryl^9, D-Pro^8 ] Didemnin B showed a step yield of 42%.
“Z-D-MeLeu-Thr-{O-[Boc-(3S,4R,5R)Ist-O-Hip-Leu-Pro-Me2 Tyr]}-OTMSe” gave a step yield of 50%.

Same assay, conditions: late stage modification step
In the case of [L-Ala^8 ]Didemnin B, the step yield is reported as 97%.
Substance [H6 Me2 Tyr6 ]Didemnin B has a step yield of 20%.
In the case of [Hip^3 oxime]Didemnin B, the step yield is reported as 47%.
For [D-Pro^8 ]Didemnin B, the step yield was 97%.
